Reference: US20130109762A1
These are yes or no findings as the source states them, for the method shown. Binding calls can cover weak binding; strength is not graded here.

Tests used:
[1] = target: T1, eADF4(C16) spider silk particles; test: incubation of lysozyme with silk particles (0.5 mg/ml, 10 mM phosphate pH 7.0, 30 min), centrifugation, residual protein in supernatant by Micro BCA
T1 sequence: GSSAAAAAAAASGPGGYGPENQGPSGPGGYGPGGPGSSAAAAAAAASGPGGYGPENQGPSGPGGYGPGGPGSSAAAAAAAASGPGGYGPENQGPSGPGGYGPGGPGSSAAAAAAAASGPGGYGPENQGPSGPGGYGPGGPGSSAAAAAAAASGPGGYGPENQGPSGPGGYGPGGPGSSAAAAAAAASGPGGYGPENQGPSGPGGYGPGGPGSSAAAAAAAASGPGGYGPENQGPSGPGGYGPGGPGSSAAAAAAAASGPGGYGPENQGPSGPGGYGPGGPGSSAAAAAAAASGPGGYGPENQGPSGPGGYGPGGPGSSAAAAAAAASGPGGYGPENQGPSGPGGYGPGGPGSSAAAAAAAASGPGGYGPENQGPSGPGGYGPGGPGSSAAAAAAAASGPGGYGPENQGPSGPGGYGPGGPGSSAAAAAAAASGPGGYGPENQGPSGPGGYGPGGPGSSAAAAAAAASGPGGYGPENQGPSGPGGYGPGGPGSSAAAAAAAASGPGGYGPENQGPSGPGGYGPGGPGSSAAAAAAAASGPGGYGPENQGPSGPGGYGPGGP

[2] = target: T1, eADF4(C16) spider silk particles; test: depletion assay, lysozyme with silk particles; supernatant by Micro BCA
[3] = target: T1, eADF4(C16) spider silk particles; test: depletion assay at pH 7.0/30 mM, figure legend of FIG. 6A

Measured: binding

Lysozyme (enzyme)
binds: all assays above
